The source of these data is patent publication US8394824B2 (priority 2004, dated 2013).

For the test, the system named is ex vivo ileum specimen.

Each structure is given as a SMILES string. Counter-ions that a name gives are not always drawn.

`CN1[C@@H]2CC[C@H]1C[C@@H](OC(=O)C(CO)c1ccccc1)C2` (stereo partly shown) [atropine sulfate, reference compound]: the “ileum contraction response resulted from electric irritation” value was “completely blocked”.
